Assay results as given in US10149885B2, “Method of treatment or prophylaxis of infections of the eye” (STARPHARMA PTY LIMITED, priority 2012, dated 2018).
For some of these results: For at least one compound, name, drawing or mass did not settle the structure. Some entries share one result that the patent states for a list of compounds.

Key:
Test in all cases: Serial passage resistance development, MIC
Assay type in all cases: cell-based
[1] = tested on: Gardnerella vaginalis ATCC 14018 (MMX 4153); settings: 10 serial passages
[2] = tested on: Mobiluncus curtisii ATCC 35241 (MMX 4145); settings: 10 serial passages
[3] = tested on: Lactobacillus acidophilus MMX 5716; settings: 10 serial passages
[4] = tested on: Prevotella bivia MMX 3447; settings: through passage 5 (organism not viable beyond)

SMILES	Change of MIC during passage (in words) [1]	Change of MIC during passage (in words) [2]	Change of MIC during passage (in words) [3]	Fold increase of MIC over baseline [4] [fold]
CCC[C@@H]1C[C@@H](C(=O)N[C@@H]([C@H]2O[C@H](SC)[C@H](O)[C@@H](O)[C@H]2O)[C@H](C)Cl)N(C)C1 [Clindamycin]	no increase in MIC	No apparent increase	unchanged	
Cc1ncc([N+](=O)[O-])n1CCO [Metronidazole]				≤ 2
